In article PMC13187458:
These are yes or no findings as the source states them, for the method shown. Binding seen in cells or lysates may run through a third protein. Where a sequence is shown, tags or fusion partners need not be part of it.

Molecular target: T1, Flag-tagged TRF1, P54274
T1 chain: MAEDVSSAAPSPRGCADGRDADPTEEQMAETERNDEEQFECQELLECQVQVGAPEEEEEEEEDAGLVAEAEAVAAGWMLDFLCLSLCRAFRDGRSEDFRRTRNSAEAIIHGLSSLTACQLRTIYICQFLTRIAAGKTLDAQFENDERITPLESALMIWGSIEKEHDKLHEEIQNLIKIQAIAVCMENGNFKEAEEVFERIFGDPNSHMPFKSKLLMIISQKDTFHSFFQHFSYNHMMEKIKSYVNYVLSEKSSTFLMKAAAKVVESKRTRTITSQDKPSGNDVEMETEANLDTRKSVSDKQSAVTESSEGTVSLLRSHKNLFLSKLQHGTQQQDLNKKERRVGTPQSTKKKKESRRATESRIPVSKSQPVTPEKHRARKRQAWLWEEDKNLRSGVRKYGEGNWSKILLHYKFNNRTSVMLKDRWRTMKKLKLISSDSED
Assay: co-IP; lysates of BJ^T cells stably expressing Flag-tagged vector, TRF1 or TRF1 fusion proteins; NETN lysis buffer; anti-Flag agarose beads, 4 °C, 30 min; Western blot for endogenous TRIM28; also done after Benzonase treatment of the lysates
Details: remark: other sources report otherwise

B1: TRIM28 (Tripartite motif-containing 28), endogenous, Q13263 1-835 (protein)
chain: MAASAAAASAAAASAASGSPGPGEGSAGGEKRSTAPSAAASASASAAASSPAGGGAEALELLEHCGVCRERLRPEREPRLLPCLHSACSACLGPAAPAAANSSGDGGAAGDGTVVDCPVCKQQCFSKDIVENYFMRDSGSKAATDAQDANQCCTSCEDNAPATSYCVECSEPLCETCVEAHQRVKYTKDHTVRSTGPAKSRDGERTVYCNVHKHEPLVLFCESCDTLTCRDCQLNAHKDHQYQFLEDAVRNQRKLLASLVKRLGDKHATLQKSTKEVRSSIRQVSDVQKRVQVDVKMAILQIMKELNKRGRVLVNDAQKVTEGQQERLERQHWTMTKIQKHQEHILRFASWALESDNNTALLLSKKLIYFQLHRALKMIVDPVEPHGEMKFQWDLNAWTKSAEAFGKIVAERPGTNSTGPAPMAPPRAPGPLSKQGSGSSQPMEVQEGYGFGSGDDPYSSAEPHVSGVKRSRSGEGEVSGLMRKVPRVSLERLDLDLTADSQPPVFKVFPGSTTEDYNLIVIERGAAAAATGQPGTAPAGTPGAPPLAGMAIVKEEETEAAIGAPPTATEGPETKPVLMALAEGPGAEGPRLASPSGSTSSGLEVVAPEGTSAPGGGPGTLDDSATICRVCQKPGDLVMCNQCEFCFHLDCHLPALQDVPGEEWSCSLCHVLPDLKEEDGSLSLDGADSTGVVAKLSPANQRKCERVLLALFCHEPCRPLHQLATDSTFSLDQPGGTLDLTLIRARLQEKLSPPYSSPQEFAQDVGRMFKQFNKLTEDKADVQSIIGLQRFFETRMNEAFGDTKFSAVLVEPPPMSLPGAGLSSQELSGGPGDGP
binding: no binding
